# Test results from PubChem BioAssay AID504467 (National Center for Advancing Translational Sciences (NCATS), 2011).
# In all, about 330,000 compounds went through this assay and about 7,700 (2.3%) were called active. Inconclusive means that the source gave no clear call. Such entries were picked first, then a sample of the others. Calls follow the shape of the dose curve; as a rule, active = well fitted inhibition curve with a large enough effect; inconclusive = small, poorly fitted or top-dose-only effect, or effect the other way; inactive = flat fitted curve, though single readings scatter. Where the call is inconclusive, the potency comes from a doubtful curve fit.
# Assay: qHTS screen for small molecules that inhibit ELG1-dependent DNA repair in human embryonic kidney (HEK293T) cells expressing luciferase-tagged ELG1; also: nearly all actives have a fitted effect of over 55% in size
# Details: HEK293T ELG1-luciferase reporter, luminescence, 16 h, DNA damage induced by 5-fluorouridine; series mostly up to 46.1 µM
# Outline: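 5-Fluorouridine DNA damage + compound/DMSO, 2,000 cells/well, 16 h, 37 °C/5% CO2. ONE-Glo, 30 min RT, luminescence. Readout = decrease in reporter signal.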
# Potency is read from the fitted curve at half-maximal effect.
row,SMILES,Potency
1,CCNc1nc(NC(C)CC)nc(Oc2ccc(OCC)nn2)n1 (centres undefined),"inconclusive: 7.3 µM [activator, partial curve]"
2,O=C(Nc1ccsc1C(=O)O)c1ccccc1,"inconclusive: 20.6 µM [activator, partial curve]"
3,CC(=O)Nc1ccc(S(=O)(=O)CCC(=O)O)cc1,"inconclusive: 20.6 µM [activator, partial curve, poor fit]"
4,CCC(C)NC(=O)CSc1ccc(S(=O)(=O)N2CCN(Cc3ccccc3)CC2)cn1 (centres undefined),"inconclusive: 0.92 µM [inhibitor, full curve, poor fit]"
5,COC(=O)C1=C(C)N(c2ccc(OC)c(OC)c2)C(=O)/C1=C\c1ccco1,"inconclusive: 29.1 µM [inhibitor, single point]"
6,COc1ccccc1N1CCN(C(=O)CCCCn2c(=O)[nH]c3ccsc3c2=O)CC1,"inconclusive: 20.6 µM [inhibitor, partial curve]"
7,Cc1onc(-c2ccccc2)c1C(=O)OCC(=O)N(CC(C)C)c1c(N)n(Cc2ccccc2)c(=O)[nH]c1=O,"inconclusive: 20.6 µM [inhibitor, single point]"
8,O=C(/C=C/c1ccc2c(c1)OCO2)NCC1CCCO1 (centres undefined),"inconclusive: 18.3 µM [activator, partial curve]"
9,Cc1ccc(NC(=O)Cn2nnc(C(=O)NCCc3ccccc3)c2N)c(C)c1,"inconclusive: 29.1 µM [activator, single point]"
10,O=C1/C(=C/c2ccncc2)SC(=S)N1C1CCCCC1,inactive
11,COc1ccc(NC(=O)C(C)N2c3cccc4cccc(c34)S2(=O)=O)cc1 (centres undefined),"inconclusive: 20.6 µM [inhibitor, single point]"
12,O=C(CSC(=S)N1CCCC1)c1ccccc1,"inconclusive: 1.3 µM [activator, full curve]"
13,Cc1cccn2c(=O)c3cc(S(=O)(=O)c4ccccc4)c(=N)n(CC4CCCO4)c3nc12 (centres undefined),"inconclusive: 29.1 µM [inhibitor, single point]"
14,C=CCN1C(=O)C(CC(=O)O)SC1=Nc1ccc(C)cc1 (centres undefined),inactive
15,O=C(NC(=S)Nc1cccc(Cl)c1N1CCCCC1)c1cccs1,inactive
16,Cc1c(C(=O)Nc2nc3ccccc3[nH]2)oc2c(Cl)cccc12,"inconclusive: 13 µM [activator, partial curve]"
17,C#CCn1c2ccccc2c2nc3ccccc3nc21,inactive
18,CC1(C)N=C(/C=N/O)CN1O,"inconclusive: 32.6 µM [activator, partial curve, poor fit]"
19,COc1ccc(C(C(=O)NC(C)(C)C)N(Cc2cccs2)C(=O)CCC(=O)Nc2cc(C)on2)cc1 (centres undefined),"inconclusive: 29.1 µM [inhibitor, single point]"
20,Fc1ccccc1Nc1nc2c(s1)CCc1ccccc1-2,"inconclusive: 1.84 µM [activator, full curve]"
21,COc1ccc(NC(=O)N(C)C[C@H]2Oc3c(NC(=O)Cc4ccccc4)cccc3C(=O)N([C@H](C)CO)C[C@@H]2C)cc1,inactive
22,O=C(Nc1ccc(F)cc1)N1CCOCC1,inactive

# Reformatted: 3 of the compounds above.
row | SMILES | Potency
9 | Cc1ccc(NC(=O)Cn2nnc(C(=O)NCCc3ccccc3)c2N)c(C)c1 | inconclusive: 29.1 µM [activator, single point]
17 | C#CCn1c2ccccc2c2nc3ccccc3nc21 | inactive
18 | CC1(C)N=C(/C=N/O)CN1O | inconclusive: 32.6 µM [activator, partial curve, poor fit]

# Going on with the list:

row,SMILES,Potency
1,CCO[C@@H]1OC(C(=O)NC2CC2)=C[C@H](c2ccc(C(F)(F)F)cc2)[C@H]1CCCO,"inconclusive: 23.1 µM [inhibitor, single point]"
2,COCCn1c(-c2ccc(Cl)cc2)cnc1SCC(=O)NCc1cccs1,"inconclusive: 23.1 µM [inhibitor, partial curve, poor fit]"
3,CC(C)C(=O)Nc1ccc(-c2ccc3nncn3n2)cc1,"inconclusive: 18.3 µM [activator, partial curve]"
4,CCc1ccc(NC(=O)CNCc2ccc(OC)c(OC)c2)cc1,inactive
5,CCOc1ccc(NC(=O)CSc2nc(-c3cccs3)cc(C(F)(F)F)n2)c([N+](=O)[O-])c1,inactive
6,Cc1ccc([N+](=O)[O-])cc1NC(=O)CN(C(=O)c1ccc(Cl)cc1)C1CCCCC1,inactive
7,COc1ccc(NC(=O)/C(Cl)=C(/Cl)S(=O)Cc2ccc(Cl)cc2)cn1 (centres undefined),"inconclusive: 29.1 µM [inhibitor, partial curve, poor fit]"
8,COc1ccccc1CNC(=O)c1cc(=O)c2ccccc2o1,"inconclusive: 16.4 µM [inhibitor, single point]"
9,O=C(CCC(=O)Nc1ccc(Cl)cc1)N/N=C/c1ccc2c(c1)OCO2,"inconclusive: 16.4 µM [inhibitor, partial curve, poor fit]"
10,Cc1c(C)c2ccc(OCC(=O)NCCN3CCOCC3)c(C)c2oc1=O,"inconclusive: 29.1 µM [activator, single point]"
11,COc1ccc(S(=O)(=O)N2CCCCCC2)cc1C(=O)N(C)Cc1cccc(OC)c1OC,"inconclusive: 29.1 µM [inhibitor, single point]"
12,O=C1C=C(c2ccccc2)C[C@@H](c2ccc3c(c2)OCO3)C1,inactive
13,Cc1ccc(N/N=C(\C#N)C(=N)N2CCCCC2)cc1,"inconclusive: 2.06 µM [activator, full curve]"
14,Cc1ccccc1-n1nc2c(c1NC(=O)c1cc3ccccc3oc1=O)CS(=O)(=O)C2,"inconclusive: 16.4 µM [inhibitor, partial curve]"
15,COc1cc(/C=C/C(=O)N2CCCN(C(=O)/C=C/c3cc(OC)c(OC)c(OC)c3)CC2)cc(OC)c1OC,inactive
16,Cc1ccc(NC(=O)CSCC(=O)Nc2cccc3ncccc23)cc1,inactive
17,CN(c1ccc(OCCOc2ccccc2Cl)cc1)S(=O)(=O)c1ccccc1,inactive
18,CCN(CCn1cccn1)C(=O)CCc1nnc(-c2ccccc2)o1,"inconclusive: 18.3 µM [activator, partial curve]"
19,COc1ccc(N/C=C/C(=O)C(C)(C)C)cc1,inactive
20,Cc1ccc(C(=O)Oc2ccc3c(c2)ncn3C)cc1,"inconclusive: 29.1 µM [activator, single point]"
21,COc1ccccc1-c1nnc(SCc2nc3ccccc3s2)n1C,"inconclusive: 29.1 µM [activator, single point]"
22,Cc1cc2ccccc2cc(C)c1=O,"inconclusive: 14.6 µM [activator, partial curve]"
